Measurements: the supplement of paper PMC10849652
Some of the results follow.

Sequences of proteins named here, by UniProt entry; tags and fusion partners are left off. A change or cut given only in a name is not applied to a line headed by its entry.
UniProt Q9BQK8: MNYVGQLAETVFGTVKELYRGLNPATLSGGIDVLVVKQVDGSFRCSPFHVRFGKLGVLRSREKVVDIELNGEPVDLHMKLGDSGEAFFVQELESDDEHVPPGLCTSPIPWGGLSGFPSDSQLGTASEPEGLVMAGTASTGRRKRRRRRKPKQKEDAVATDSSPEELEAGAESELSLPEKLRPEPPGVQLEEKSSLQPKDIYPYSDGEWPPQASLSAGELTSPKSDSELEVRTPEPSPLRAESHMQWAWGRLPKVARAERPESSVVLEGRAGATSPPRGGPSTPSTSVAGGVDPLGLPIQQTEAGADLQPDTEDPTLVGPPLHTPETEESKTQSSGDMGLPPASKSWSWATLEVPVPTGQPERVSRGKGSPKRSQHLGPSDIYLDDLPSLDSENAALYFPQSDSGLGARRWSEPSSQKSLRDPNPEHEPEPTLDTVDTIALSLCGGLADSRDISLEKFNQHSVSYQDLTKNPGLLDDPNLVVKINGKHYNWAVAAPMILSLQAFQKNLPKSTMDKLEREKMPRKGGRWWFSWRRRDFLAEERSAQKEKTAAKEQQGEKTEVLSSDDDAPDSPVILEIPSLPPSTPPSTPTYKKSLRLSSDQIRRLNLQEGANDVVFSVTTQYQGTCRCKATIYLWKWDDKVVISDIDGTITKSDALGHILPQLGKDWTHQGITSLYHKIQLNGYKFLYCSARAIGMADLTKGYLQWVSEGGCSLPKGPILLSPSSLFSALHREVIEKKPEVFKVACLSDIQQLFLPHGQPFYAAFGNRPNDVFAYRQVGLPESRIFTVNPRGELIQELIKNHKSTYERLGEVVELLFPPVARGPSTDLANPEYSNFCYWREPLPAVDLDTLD
UniProt Q9H6V9: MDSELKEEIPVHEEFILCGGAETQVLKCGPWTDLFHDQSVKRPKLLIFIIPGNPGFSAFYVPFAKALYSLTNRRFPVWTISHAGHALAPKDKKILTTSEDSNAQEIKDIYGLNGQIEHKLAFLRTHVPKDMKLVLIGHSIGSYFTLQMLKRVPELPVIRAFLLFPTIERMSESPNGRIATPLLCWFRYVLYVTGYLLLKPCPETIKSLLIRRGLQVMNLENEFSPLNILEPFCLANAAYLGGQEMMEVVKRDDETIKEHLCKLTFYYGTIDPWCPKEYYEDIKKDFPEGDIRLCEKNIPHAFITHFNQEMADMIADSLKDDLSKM
UniProt P48059, whole entry, looked up: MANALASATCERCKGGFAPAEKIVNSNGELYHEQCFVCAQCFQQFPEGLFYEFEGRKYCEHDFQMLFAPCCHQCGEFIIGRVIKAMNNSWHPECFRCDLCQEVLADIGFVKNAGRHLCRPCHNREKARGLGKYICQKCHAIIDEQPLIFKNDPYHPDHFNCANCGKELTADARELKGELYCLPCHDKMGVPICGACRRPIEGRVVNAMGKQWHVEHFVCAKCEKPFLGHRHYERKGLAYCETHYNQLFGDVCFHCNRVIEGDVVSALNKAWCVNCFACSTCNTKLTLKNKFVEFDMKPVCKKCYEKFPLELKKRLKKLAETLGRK
UniProt O43766: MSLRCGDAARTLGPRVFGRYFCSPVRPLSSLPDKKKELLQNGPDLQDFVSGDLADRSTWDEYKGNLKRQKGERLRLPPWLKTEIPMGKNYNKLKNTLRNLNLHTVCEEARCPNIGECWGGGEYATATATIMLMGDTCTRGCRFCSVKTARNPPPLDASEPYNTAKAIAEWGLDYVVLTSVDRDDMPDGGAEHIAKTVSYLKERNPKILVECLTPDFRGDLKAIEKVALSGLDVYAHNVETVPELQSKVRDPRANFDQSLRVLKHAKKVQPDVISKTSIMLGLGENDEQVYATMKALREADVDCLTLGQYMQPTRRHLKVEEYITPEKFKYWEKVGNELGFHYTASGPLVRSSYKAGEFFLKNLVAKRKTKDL
UniProt Q969L4: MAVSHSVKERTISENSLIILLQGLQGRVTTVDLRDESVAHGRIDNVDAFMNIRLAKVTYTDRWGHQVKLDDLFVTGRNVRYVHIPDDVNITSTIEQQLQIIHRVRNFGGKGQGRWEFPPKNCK
UniProt Q6P5S2: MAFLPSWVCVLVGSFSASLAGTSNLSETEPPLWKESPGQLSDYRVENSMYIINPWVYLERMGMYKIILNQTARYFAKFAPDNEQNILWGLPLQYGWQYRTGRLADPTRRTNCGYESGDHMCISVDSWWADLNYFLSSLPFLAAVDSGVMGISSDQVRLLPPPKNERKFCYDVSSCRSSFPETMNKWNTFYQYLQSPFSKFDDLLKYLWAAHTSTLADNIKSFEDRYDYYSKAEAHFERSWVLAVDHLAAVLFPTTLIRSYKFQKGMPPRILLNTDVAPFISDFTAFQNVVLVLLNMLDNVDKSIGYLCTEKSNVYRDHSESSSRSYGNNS
UniProt P01130: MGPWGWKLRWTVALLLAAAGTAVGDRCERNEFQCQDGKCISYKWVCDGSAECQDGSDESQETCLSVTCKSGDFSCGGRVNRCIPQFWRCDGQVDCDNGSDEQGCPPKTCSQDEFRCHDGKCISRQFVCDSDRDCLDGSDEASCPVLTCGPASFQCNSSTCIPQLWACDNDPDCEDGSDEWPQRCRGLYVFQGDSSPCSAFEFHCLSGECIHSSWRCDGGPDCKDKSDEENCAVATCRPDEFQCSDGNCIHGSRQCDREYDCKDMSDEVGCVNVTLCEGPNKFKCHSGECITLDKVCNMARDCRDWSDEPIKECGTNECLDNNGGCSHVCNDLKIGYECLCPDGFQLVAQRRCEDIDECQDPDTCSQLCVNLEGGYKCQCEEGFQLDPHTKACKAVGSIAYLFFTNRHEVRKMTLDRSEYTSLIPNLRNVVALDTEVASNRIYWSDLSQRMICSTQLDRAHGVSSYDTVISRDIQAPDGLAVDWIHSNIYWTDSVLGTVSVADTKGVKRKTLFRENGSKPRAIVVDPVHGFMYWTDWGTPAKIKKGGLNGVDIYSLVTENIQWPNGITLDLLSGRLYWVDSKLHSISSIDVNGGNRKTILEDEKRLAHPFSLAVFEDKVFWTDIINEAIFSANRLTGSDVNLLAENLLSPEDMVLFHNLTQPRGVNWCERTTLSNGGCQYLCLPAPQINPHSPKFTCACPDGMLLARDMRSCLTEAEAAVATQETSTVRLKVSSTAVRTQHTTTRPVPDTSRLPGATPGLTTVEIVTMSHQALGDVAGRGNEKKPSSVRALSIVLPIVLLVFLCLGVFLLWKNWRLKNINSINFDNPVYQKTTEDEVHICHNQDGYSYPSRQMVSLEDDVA
UniProt Q96BZ8: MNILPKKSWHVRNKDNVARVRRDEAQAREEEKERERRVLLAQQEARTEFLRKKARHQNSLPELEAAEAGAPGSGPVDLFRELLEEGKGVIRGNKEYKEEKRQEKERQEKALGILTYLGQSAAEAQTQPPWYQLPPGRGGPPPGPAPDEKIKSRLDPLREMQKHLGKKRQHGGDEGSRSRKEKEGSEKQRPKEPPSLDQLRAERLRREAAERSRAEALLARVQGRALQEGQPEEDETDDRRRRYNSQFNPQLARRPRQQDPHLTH
UniProt P02545: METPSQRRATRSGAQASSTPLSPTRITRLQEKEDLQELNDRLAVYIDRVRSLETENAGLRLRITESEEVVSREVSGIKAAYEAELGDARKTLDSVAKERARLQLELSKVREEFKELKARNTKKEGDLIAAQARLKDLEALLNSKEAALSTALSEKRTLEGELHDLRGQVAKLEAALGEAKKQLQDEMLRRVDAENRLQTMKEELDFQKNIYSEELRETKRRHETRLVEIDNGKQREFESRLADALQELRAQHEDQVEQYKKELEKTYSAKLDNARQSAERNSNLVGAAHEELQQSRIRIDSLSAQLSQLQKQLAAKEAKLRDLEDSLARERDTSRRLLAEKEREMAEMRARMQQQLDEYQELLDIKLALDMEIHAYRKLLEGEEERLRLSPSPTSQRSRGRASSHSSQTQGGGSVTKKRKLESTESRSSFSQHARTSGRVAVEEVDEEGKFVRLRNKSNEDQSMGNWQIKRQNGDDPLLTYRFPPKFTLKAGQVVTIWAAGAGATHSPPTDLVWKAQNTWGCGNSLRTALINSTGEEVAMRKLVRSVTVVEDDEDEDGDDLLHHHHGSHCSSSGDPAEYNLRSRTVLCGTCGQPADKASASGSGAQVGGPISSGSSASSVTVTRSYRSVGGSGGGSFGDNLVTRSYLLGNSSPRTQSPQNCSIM
UniProt Q6P1Q0: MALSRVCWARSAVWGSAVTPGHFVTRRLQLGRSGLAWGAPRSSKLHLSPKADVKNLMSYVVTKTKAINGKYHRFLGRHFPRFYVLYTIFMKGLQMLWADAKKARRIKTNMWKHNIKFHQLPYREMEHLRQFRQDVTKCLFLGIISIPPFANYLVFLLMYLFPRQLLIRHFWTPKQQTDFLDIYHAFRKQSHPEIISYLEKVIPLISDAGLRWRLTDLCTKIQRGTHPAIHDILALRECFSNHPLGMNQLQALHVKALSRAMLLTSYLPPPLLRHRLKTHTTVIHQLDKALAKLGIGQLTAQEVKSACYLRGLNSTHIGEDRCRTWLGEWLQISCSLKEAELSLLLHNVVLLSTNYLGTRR
UniProt Q6UWP7: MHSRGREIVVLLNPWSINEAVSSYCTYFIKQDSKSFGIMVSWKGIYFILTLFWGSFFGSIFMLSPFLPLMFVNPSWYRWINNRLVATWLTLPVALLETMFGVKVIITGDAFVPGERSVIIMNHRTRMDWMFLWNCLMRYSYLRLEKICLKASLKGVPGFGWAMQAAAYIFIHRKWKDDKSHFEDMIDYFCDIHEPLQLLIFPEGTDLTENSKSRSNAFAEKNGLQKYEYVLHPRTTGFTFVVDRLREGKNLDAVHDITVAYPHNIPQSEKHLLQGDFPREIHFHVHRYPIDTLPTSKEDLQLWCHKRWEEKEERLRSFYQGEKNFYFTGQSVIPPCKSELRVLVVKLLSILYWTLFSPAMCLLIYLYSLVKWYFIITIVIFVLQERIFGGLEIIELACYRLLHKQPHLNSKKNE
UniProt Q9Y4Y9: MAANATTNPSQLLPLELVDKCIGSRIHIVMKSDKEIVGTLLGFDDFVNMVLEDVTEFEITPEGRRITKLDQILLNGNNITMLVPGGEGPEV
UniProt Q9UHB6: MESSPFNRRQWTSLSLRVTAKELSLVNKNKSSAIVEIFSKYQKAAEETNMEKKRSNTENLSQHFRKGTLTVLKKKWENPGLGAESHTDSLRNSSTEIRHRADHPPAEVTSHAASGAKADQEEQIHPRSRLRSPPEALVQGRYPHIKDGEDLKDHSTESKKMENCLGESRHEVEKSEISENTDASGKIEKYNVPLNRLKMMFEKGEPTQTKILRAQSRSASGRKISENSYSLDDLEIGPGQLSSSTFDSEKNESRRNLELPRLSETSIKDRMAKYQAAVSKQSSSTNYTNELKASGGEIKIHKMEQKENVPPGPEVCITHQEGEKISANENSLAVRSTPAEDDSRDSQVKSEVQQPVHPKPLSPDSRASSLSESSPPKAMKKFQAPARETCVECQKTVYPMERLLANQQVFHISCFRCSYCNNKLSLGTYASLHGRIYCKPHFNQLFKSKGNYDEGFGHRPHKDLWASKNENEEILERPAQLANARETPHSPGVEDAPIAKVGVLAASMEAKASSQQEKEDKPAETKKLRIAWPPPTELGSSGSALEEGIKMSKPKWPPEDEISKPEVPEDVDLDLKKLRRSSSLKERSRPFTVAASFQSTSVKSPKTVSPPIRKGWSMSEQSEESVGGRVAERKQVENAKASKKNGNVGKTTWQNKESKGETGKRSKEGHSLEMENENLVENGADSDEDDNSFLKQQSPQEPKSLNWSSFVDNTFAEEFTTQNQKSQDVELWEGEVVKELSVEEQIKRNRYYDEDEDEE
UniProt Q86WA8: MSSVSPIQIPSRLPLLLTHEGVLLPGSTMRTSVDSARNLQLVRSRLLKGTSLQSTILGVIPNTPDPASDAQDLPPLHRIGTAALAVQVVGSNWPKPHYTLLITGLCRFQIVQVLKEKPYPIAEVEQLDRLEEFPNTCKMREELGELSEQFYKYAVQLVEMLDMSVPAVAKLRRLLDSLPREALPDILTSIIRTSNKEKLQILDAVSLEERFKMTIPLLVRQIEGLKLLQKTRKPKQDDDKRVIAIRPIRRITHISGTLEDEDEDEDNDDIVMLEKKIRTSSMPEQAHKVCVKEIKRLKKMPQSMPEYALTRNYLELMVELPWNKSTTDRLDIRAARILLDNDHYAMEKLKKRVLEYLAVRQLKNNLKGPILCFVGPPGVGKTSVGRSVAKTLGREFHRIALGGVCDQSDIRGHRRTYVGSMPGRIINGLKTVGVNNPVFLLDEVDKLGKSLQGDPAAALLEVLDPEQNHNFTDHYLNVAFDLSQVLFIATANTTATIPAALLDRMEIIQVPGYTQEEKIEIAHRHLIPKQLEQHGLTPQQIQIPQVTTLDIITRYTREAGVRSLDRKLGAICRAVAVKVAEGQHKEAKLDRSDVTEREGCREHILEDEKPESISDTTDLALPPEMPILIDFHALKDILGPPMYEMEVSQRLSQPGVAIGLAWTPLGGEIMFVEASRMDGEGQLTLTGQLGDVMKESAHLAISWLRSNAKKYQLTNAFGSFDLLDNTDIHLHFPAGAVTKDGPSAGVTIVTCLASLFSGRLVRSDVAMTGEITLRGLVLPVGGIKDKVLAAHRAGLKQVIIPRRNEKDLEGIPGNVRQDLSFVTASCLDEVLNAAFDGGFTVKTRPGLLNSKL

Key:
Assay in all cases: log2 fold change, soluble protein after heating vs DMSO (PISA); higher = thermal stabilisation; K562 lysate, 10 uM; active = over 0.2 and 3.5 SD of the protein, either way, in both replicates (recomputed)
[1] = compound: C1=CC=C(C=C1)[C@H](COC2=CC3=C(C=C2)NC(=O)N3)NC(=O)C4=CC=CN(C4=O)CC5=CC(=C(C=C5)F)F
In short: (§1)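 To prepare the extract, K562 pellets were dounce-homogenised in PBS pH 7.4 with 1 mM MgCl2, giving crude material at 1 mg/mL protein. This was treated with 10 μM compound for 30 min, then heated in aliquots for 3 min over 48°C-58°C before pooling and addition of NP-40 to 0.5% at 4°C. Centrifugation at 21,000xg for 90 min left soluble protein in the supernatant, which TMTpro 16plex LC-MS/MS quantified with equalised channel sums. Results are log-two fold changes in thermal stability compared with solvent controls, from duplicates.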

[2] = compound: CC1=C(SC2=C1C(=N[C@H](C3=NN=C(N32)C)CC(=O)N)C4=CC=C(C=C4)Cl)C
In short: as §1

[3] = compound: CC1=C2C(=CC=C1)N=C(N(C2=O)C3=CC=CC=C3C)CN4C=NC5=C(N=CN=C54)N
In short: as §1

[4] = compound: Cc1sc2c(c1C)C(c1ccc(Cl)cc1)=N[C@@H](CC(=O)OC(C)(C)C)c1nnc(C)n1-2
In short: as §1

[5] = compound: c1ccc([C@@H]2C[C@H]2NC2CCNCC2)cc1
In short: as §1

Measured: log2 fold change

LEPR (UniProt P48357)
inactive: [1] 0.013 | [2] -0.044 | [3] -0.035 | [4] -0.009 | [5] -0.068

LIN9 isoform 2 (UniProt Q5TKA1)
inactive: [1] -0.04 | [2] -0.016 | [3] 0.059 | [4] -0.061 | [5] 0.032

LPIN3 isoform 2 (UniProt Q9BQK8)
inactive: [1] -0.018 | [2] 0.091 | [3] 0.06 | [4] -0.001 | [5] 0.134

LSM7 (UniProt Q9UK45)
inactive: [1] 0.066 | [2] -0.001 | [3] -0.044 | [4] -0.013 | [5] -0.143

LMTK2 (UniProt Q8IWU2)
inactive: [1] 0.039 | [2] -0.022 | [3] -0.001 | [4] -0.137 | [5] 0.009

LDAH isoform 2 (UniProt Q9H6V9)
inactive: [1] -0.119 | [2] 0.018 | [3] 0.001 | [4] 0.075 | [5] -0.002

LIMS1 isoform 3 (UniProt P48059)
inactive: [1] -0.006 | [2] 0.006 | [3] -0.026 | [4] 0.037 | [5] -0.057

LIG1 (UniProt P18858)
inactive: [1] 0 | [2] 0.02 | [3] 0.016 | [4] -0.004 | [5] 0.017

LMBRD1 (UniProt Q9NUN5)
inactive: [1] 0.099 | [2] -0.065 | [3] -0.009 | [4] -0.155 | [5] -0.001

LPIN1 isoform 7 (UniProt Q14693)
inactive: [1] 0.053 | [2] -0.003 | [3] -0.053 | [4] 0.029 | [5] 0.194

LDHA isoform 3 (UniProt P00338)
inactive: [1] 0.024 | [2] 0.023 | [3] -0.022 | [4] -0.004 | [5] 0.024

LMNB2 (UniProt Q03252)
inactive: [1] 0.041 | [2] 0.009 | [3] -0.075 | [4] 0.097 | [5] 0.006

LMF2 (UniProt Q9BU23)
inactive: [1] -0.033 | [2] 0.033 | [3] 0.046 | [4] 0.005 | [5] -0.089

LRRC40 (UniProt Q9H9A6)
inactive: [1] 0.001 | [2] 0.003 | [3] 0.003 | [4] 0.012 | [5] 0.034

LIAS (UniProt O43766)
inactive: [1] 0.017 | [2] -0.015 | [3] -0.034 | [4] -0.058 | [5] -0.017

LRP6 (UniProt O75581)
inactive: [1] 0.008 | [2] 0.139 | [4] 0.043

LCMT2 (UniProt O60294)
inactive: [1] 0.009 | [2] 0.062 | [3] 0.085 | [4] 0.046 | [5] 0.036

LRSAM1 (UniProt Q6UWE0)
inactive: [1] -0.009 | [2] -0.007 | [3] 0.024 | [4] -0.001 | [5] -0.011

LDHB (UniProt P07195)
inactive: [1] 0.01 | [2] 0.027 | [3] -0.004 | [4] -0.007 | [5] -0.009

LIN7C (UniProt Q9NUP9)
inactive: [1] -0.033 | [2] 0.029 | [3] 0.005 | [4] -0.059 | [5] 0.028

LIMK2 isoform 3 (UniProt P53671)
inactive: [1] -0.022 | [2] -0.123 | [3] 0.038 | [4] 0.005 | [5] -0.132

LSM8 (UniProt O95777)
inactive: [1] -0.057 | [2] -0.012 | [3] 0.017 | [4] -0.004 | [5] -0.029

LRRC59 (UniProt Q96AG4)
inactive: [1] 0.001 | [2] -0.015 | [3] 0.022 | [4] 0.064 | [5] -0.052

LSM10 (UniProt Q969L4)
inactive: [1] -0.023 | [2] -0.145 | [4] 0.099 | [5] -0.047

LPIN2 (UniProt Q92539)
inactive: [1] 0.01 | [2] -0.037 | [3] -0.004 | [4] -0.047 | [5] -0.012

LEG1 (UniProt Q6P5S2)
inactive: [1] -0.29 | [2] 0.162 | [4] -0.059

LRP8 (UniProt Q14114)
inactive: [1] 0.09 | [2] 0.082 | [3] -0.21 | [5] 0.053

LDLR (UniProt P01130)
inactive: [1] -0.054 | [2] -0.075 | [3] 0.02 | [4] -0.052 | [5] 0.037

Quoted from the listing (4 entries):
LSM10 (UniProt Q969L4)
inactive: [1] -0.023 | [2] -0.145 | [4] 0.099 | [5] -0.047

LPIN2 (UniProt Q92539)
inactive: [1] 0.01 | [2] -0.037 | [3] -0.004 | [4] -0.047 | [5] -0.012

LEG1 (UniProt Q6P5S2)
inactive: [1] -0.29 | [2] 0.162 | [4] -0.059

LRP8 (UniProt Q14114)
inactive: [1] 0.09 | [2] 0.082 | [3] -0.21 | [5] 0.053

Further results

LRP10 (UniProt Q7Z4F1)
inactive: [1] -0.032 | [2] -0.029 | [4] -0.022 | [5] -0.048

LIG4 (UniProt P49917)
inactive: [1] -0.04 | [2] 0.083 | [3] -0.056 | [4] -0.002 | [5] 0.078

LLPH (UniProt Q9BRT6)
inactive: [1] -0.079 | [2] 0.061 | [3] -0.027 | [4] -0.07 | [5] 0.106

LMNB1 (UniProt P20700)
inactive: [1] -0.01 | [2] 0 | [3] -0.012 | [4] 0.058 | [5] -0.004

LMAN2L isoform 2 (UniProt Q9H0V9)
inactive: [1] 0.002 | [2] 0.003 | [3] -0.008 | [4] 0.002 | [5] -0.023

LRCH3 (UniProt Q96II8)
inactive: [1] -0.038 | [2] -0.044 | [3] 0.025 | [4] -0.014 | [5] -0.028

LARS2 (UniProt Q15031)
inactive: [1] -0.07 | [2] -0.072 | [3] -0.019 | [4] 0.066 | [5] 0.064

LIG3 (UniProt P49916)
inactive: [1] -0.003 | [2] -0.018 | [3] -0.014 | [4] -0.035 | [5] 0.021

LIMD1 (UniProt Q9UGP4)
inactive: [1] 0.037 | [2] -0.019 | [3] -0.011 | [4] -0.026 | [5] -0.038

LRCH1 isoform 3 (UniProt Q9Y2L9)
inactive: [1] 0.063 | [2] -0.001 | [4] -0.177

LIN37 (UniProt Q96GY3)
inactive: [1] -0.066 | [2] 0.086 | [3] -0.105 | [4] -0.052 | [5] -0.142

LENG1 (UniProt Q96BZ8)
inactive: [1] 0.07 | [2] 0.006 | [3] -0.021 | [4] 0.013 | [5] -0.05

LRPAP1 (UniProt P30533)
inactive: [1] 0.055 | [2] -0.027 | [3] -0.02 | [4] 0.053 | [5] 0.084

LMNA (UniProt P02545)
inactive: [1] -0.003 | [2] -0.008 | [3] -0.02 | [4] -0.04 | [5] 0.019

LRRC47 (UniProt Q8N1G4)
inactive: [1] 0.008 | [2] 0.021 | [3] 0.003 | [4] 0.016 | [5] 0.009

LETMD1 isoform 7 (UniProt Q6P1Q0)
inactive: [1] -0.058 | [2] 0.003 | [3] -0.091 | [4] 0.027 | [5] -0.003

LCLAT1 (UniProt Q6UWP7)
inactive: [1] 0.032 | [2] 0.015 | [3] 0.085 | [4] -0.059 | [5] -0.014

LRRC57 (UniProt Q8N9N7)
inactive: [1] -0.019 | [2] -0.003 | [3] 0.015 | [4] 0.019 | [5] -0.035

LSM5 (UniProt Q9Y4Y9)
inactive: [1] -0.004 | [2] -0.088 | [3] 0.106 | [4] 0.148 | [5] 0.116

LNPK (UniProt Q9C0E8)
inactive: [1] 0.066 | [2] 0 | [3] 0.009 | [4] -0.046 | [5] -0.077

LIMA1 isoform 4 (UniProt Q9UHB6)
inactive: [1] 0.009 | [2] 0.022 | [3] 0.017 | [4] 0 | [5] 0.023

LSM14A isoform 2 (UniProt Q8ND56)
inactive: [1] 0.037 | [2] 0.023 | [3] 0.015 | [4] 0.043 | [5] -0.064

LARS (UniProt Q9P2J5)
inactive: [1] -0.02 | [2] -0.007 | [3] 0.015 | [4] 0.04 | [5] 0.077

LRIF1 (UniProt Q5T3J3)
inactive: [3] -0.072 | [4] 0.048 | [5] -0.071

LONP2 (UniProt Q86WA8)
inactive: [3] 0.045 | [5] -0.232

LRP1 (UniProt Q07954)
inactive: [3] 0.125

LONRF2 (UniProt Q1L5Z9)
inactive: [4] -0.114 | [5] 0.033
